# Screening data, single-dose tests

Source: ChEMBL document CHEMBL3988442, “University of Dundee, Small-Polar-MMV Screening Library” (2021).

Mtb cholesterol medium: 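Phenotypic screen: M. tuberculosis growth, cholesterol and DPPC medium, 4 days; the read-out is not stated. Tested at 50 µM. Direction is inferred from retests: higher values go with more growth inhibition. About 69,000 compounds were tested under these conditions; 0.54% (about 370) showed 50% or more at least once.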
Mtb glucose medium: 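Phenotypic screen: M. tuberculosis growth, glucose 7H9 medium, 3 days; the read-out is not stated. Concentration: 50 µM. Higher reads as more growth inhibition (inferred: compounds with an IC50 in retests scored well above the rest). Size under these conditions: about 69,000 compounds, about 760 of them at 50% or above in at least one test.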

Each number is a percent effect as filed.
The controls that fix the scale are not given in the record; negative values are as filed.
The compounds are a random part of those screened.
Two or more numbers in one place are separate tests of the same structure; such repeats can differ widely.

| # | structure | Mtb cholesterol medium | Mtb glucose medium |
|---|---|---|---|
| 1 | `CC(CCNC(=O)NCCc1ccncc1)c1ccccc1` (centres undefined) | -6.71% & -8.252% | 1.093% & 18.26% |
| 2 | `O=C(O)C(F)(F)F.O=C(O)C(F)(F)F.O=C(O)C(F)(F)F.[H][C@]12C[C@@H](CN(C)C)N(C)[C@@]1([H])CCN(c1ncc(F)cn1)C2` | 7.3% | -12.58% & -9.292% |
| 3 | `O=C(CCc1ccsc1)N1CCCC(n2cncn2)C1` (centres undefined) | -2.01% | 24.96% & -0.3881% |
| 4 | `COCCN1CCN(Cc2cnc(C(C)C)nc2)CC1` | -12.02% | 10.28% |
| 5 | `CC1CN(CCOc2ccccc2C#N)CCN1Cc1nccn1C` (centres undefined) | -12.57% | 25.24% |
| 6 | `O=C1CC2(CCN(Cc3ccoc3)C2)CN1c1ccc2c(c1)OCO2` (centres undefined) | 3.643% | -12.98% |
| 7 | `Cn1nccc1CN1CCOC(c2cccc(Nc3ccccn3)n2)C1` (centres undefined) | 4.807% & -10.49% | 15.37% |
| 8 | `CN(Cc1ccco1)C(=O)NCC(c1cccs1)N(C)C` (centres undefined) | 13.93% | 25.21% |
| 9 | `CCC1CN(C(=O)c2ccccc2N2CCCC2)CCN1C(C)C` (centres undefined) | -24.76% | -15.16% |
| 10 | `Cn1cc(C(=O)CC2CCCN2C(=O)c2cccc3ncccc23)cn1` (centres undefined) | -28.96% | -10.99% |
| 11 | `CC(C)Cc1cc(NC(=O)c2ccc3[nH]nnc3c2)n(C)n1` | -0.1091% | -5.223% |
| 12 | `OC1(CN2CCCC2)COCCN(c2ncnc3[nH]ccc23)C1` (centres undefined) | -3.421% & 3.592% | 2.735% |
| 13 | `c1cnc(N2CC3(CCN(C4CCOC4)CC3)c3ccccc32)nc1` (centres undefined) | 15.73% | 20.57% & 0.8591% |
| 14 | `Cc1c(Cl)c(C(=O)NCc2ccc(F)cc2)nn1C` | 3.572% | 3.32% & 24.38% |
| 15 | `CCOCCCC(=O)N1CCCC1c1nc(-c2ccccc2F)c[nH]1` (centres undefined) | 17.11% & 11.15% | 10.08% |
| 16 | `c1ccc(-c2nc3c(c(NCCn4cccc4)n2)CCNCC3)nc1` | 31.85% | 50.09% |
| 17 | `Cc1cc(C)nc(N2CCC(C(=O)Nc3n[nH]c(CC(C)C)n3)CC2)n1` | 6.986% | 0.3421% & -3.408% |
| 18 | `CCCc1nnnn1Cc1cn2c(C)cccc2n1` | 18.14% | 14.8% |
| 19 | `O=C(COc1ccccc1)N1CCC[C@]2(C[C@@H](OCC3CC3)CO2)C1` | -4.645% & 22.76% | 11.03% & 27.68% |
| 20 | `CCn1ccnc1CN1CCC(Oc2ccccc2F)(C(=O)O)CC1` | 6.172% | -9.789% |
| 21 | `O=C(CCn1cccn1)NCC(c1cccs1)N1CCOCC1` (centres undefined) | -17.59% | 1.004% |
| 22 | `Cc1csc(C(C)(C)NCCCS(C)(=O)=O)n1` | 11.49% | -10.5% |
| 23 | `NCCC(=O)N1CCC2(CC1)CN(C(=O)Cc1cccc(Cl)c1)CCO2` | -0.826% | 6.184% |
| 24 | `Cn1nnc(C2(NC(=O)c3ccccc3)CCCC2)n1` | -3.442% | 24% |
| 25 | `O=C(O)C1(Cc2cc(-c3ccc(F)cc3F)no2)CCOCC1` | -30.67% | -29.18% |
| 26 | `CC(C)n1ccnc1CN1C(=O)OC[C@@H]1c1ccccc1` | -18.9% | -27.77% |
| 27 | `C[C@H](NC(=O)C1(N(C)Cc2ccccc2)Cc2ccccc2C1)C(N)=O` | -2.874% | 1.211% & 41.39% |
| 28 | `COC[C@]1(O)CCN(C2CCN(c3ccc(Cl)cc3)CC2)CC1(C)C` | -5.095% | 15.92% |
| 29 | `F[C@@H]1CN(CC2CC2)C[C@@H]1OCc1nc2cnccc2[nH]1` | -16.42% | -4.666% & 12.52% |
| 30 | `Cc1cc(C2CCCN(CCc3ccccn3)C2)n[nH]1` (centres undefined) | 2.581% | -7.355% |
| 31 | `CCc1ccc(CNC(=O)NCc2nnc3n2CCC3)s1` | -21.16% | 1.986% |
| 32 | `CCc1nc(CN2CCCC(NCc3cnn(C(C)(C)C)c3)C2)no1` (centres undefined) | 31.71% | 31.04% |
| 33 | `CC(C)(NCC(=O)NCC(F)(F)F)c1ccc2c(c1)OCCO2` | -15.48% | 3.565% |
| 34 | `COc1ccc(OC)c(-c2nc(CN(C)Cc3noc(C)n3)c(C)o2)c1` | 13.16% | 6.525% |
| 35 | `CCc1nncn1CCNC(=O)Nc1ccc(OC)c(C)c1` | -7.174% | -1.142% |
| 36 | `CCOC(CC)C(=O)NCCC(=O)N1CCN(c2ccccn2)CC1` (centres undefined) | 8.933% | 2.559% & 0.249% |
| 37 | `CCc1n[nH]c(C2CN(C(=O)CCn3ccccc3=O)CCO2)n1` (centres undefined) | 7.247% | 23.05% |
| 38 | `CC(C)c1nc(C2CCCN(C(=O)CCCn3cccn3)C2)no1` (centres undefined) | -13.34% | -24.94% |
| 39 | `CC(c1ccco1)N(C(=O)COc1ccc(C#N)cc1)C1CC1` (centres undefined) | 17.55% | 10.61% & 13.83% |
| 40 | `Cc1nc(C)n(CCC(=O)N2CCc3ncc(Cl)cc3C2)n1` | -11.38% | 23.43% |
| 41 | `O=C(O)C(F)(F)F.[H][C@@]12C[C@H](C(=O)NCC3CC3)CN(CCc3ccccc3)[C@]1([H])CCO2` | -6.565% | 1.037% |
| 42 | `CC(C)NC(=O)CNC(=O)N1CCc2c([nH]c3ccc(Cl)cc23)C1` | -14.28% | -1.73% |
| 43 | `CSc1nc2ncc3c(=O)n(C)ccc3n2n1` | 14.85% | 14.2% |
| 44 | `CCC(=O)N(CC(N)=O)Cc1cccc(Oc2ccccc2)c1` | 12.32% | 21.55% & 1.28% |
| 45 | `O=C1CN(C(=O)CNC(CC(F)(F)F)c2ccc(F)cc2)CCN1` (centres undefined) | -15.13% | 13.93% |
| 46 | `Cc1noc(C)c1CN1Cc2cn(C)nc2C(COCC2CC2)C1.O=C(O)C(F)(F)F.O=C(O)C(F)(F)F` (centres undefined) | -39.46% | -52.09% |
| 47 | `Cc1ccccc1N1CCN(C(=O)c2cnc(C3CC3)nc2)C(C)C1` (centres undefined) | 30.65% | 48.48% |
| 48 | `Cn1nnc2c1CCN(Cc1ccco1)C2COCc1ccccc1.O=C(O)C(F)(F)F` (centres undefined) | -9.306% | -17.41% & -1.759% |
| 49 | `Cc1cc(C)n(CC(C)NC(=O)C(C)(C)c2ccccc2F)n1` (centres undefined) | -24.95% | -8.989% & -30.29% |
| 50 | `CC(C)NC(=O)c1ccc2c(c1)nc1n2CCN(Cc2ccccc2)C1` | 0.5712% | -4.509% |
| 51 | `O=C(Nc1ccccn1)c1ccc(F)c(S(=O)(=O)NC2CC2)c1` | -19.68% | -6.562% |
| 52 | `C=C(C)COc1cccc(CNCCc2c[nH]cn2)c1` | -3.199% | -11.16% |
| 53 | `COCc1c(Cl)cccc1NC(=O)CNC(=O)C(C)(C)C` | -0.9162% | 30.45% |
| 54 | `CC(=O)N1CCN(c2ccccc2CNc2cc(F)cc(F)c2)CC1` | -1.589% | -0.423% |
| 55 | `CN(CCO)Cc1nnc(C2CCN(C(=O)CN3CCCC3)CC2)n1C` | -0.03516% & 12.32% | -3.735% |
| 56 | `Cc1nc(C2CCN(S(=O)(=O)c3ccc4c(c3)CCC4)CC2)n[nH]1` | 24.47% | 8.272% |
| 57 | `CN(CC(=O)NCc1ccco1)Cc1nc2c(s1)CCCC2` | 6.345% | -0.4733% |
| 58 | `Cc1n[nH]c(C)c1CN1CCC(c2cc(C(C)C)n[nH]2)CC1` | -15.08% | -1.537% |
| 59 | `Cc1cc(N(C)CCN(C)C2CCCC2)n2nc(C)cc2n1` | 9.432% | 13.2% |

Some entries from above, unchanged:

structure	Mtb cholesterol medium	Mtb glucose medium
Cc1noc(C)c1CN1Cc2cn(C)nc2C(COCC2CC2)C1.O=C(O)C(F)(F)F.O=C(O)C(F)(F)F (centres undefined)	-39.46%	-52.09%
OC1(CN2CCCC2)COCCN(c2ncnc3[nH]ccc23)C1 (centres undefined)	-3.421% & 3.592%	2.735%
Cc1nc(C)n(CCC(=O)N2CCc3ncc(Cl)cc3C2)n1	-11.38%	23.43%
CCOC(CC)C(=O)NCCC(=O)N1CCN(c2ccccn2)CC1 (centres undefined)	8.933%	2.559% & 0.249%
CCC1CN(C(=O)c2ccccc2N2CCCC2)CCN1C(C)C (centres undefined)	-24.76%	-15.16%
CCn1ccnc1CN1CCC(Oc2ccccc2F)(C(=O)O)CC1	6.172%	-9.789%
O=C(CCc1ccsc1)N1CCCC(n2cncn2)C1 (centres undefined)	-2.01%	24.96% & -0.3881%